The values below come from patent publication US20250283871A1, “COMPOSITIONS AND METHODS FOR MODULATING THE INTERACTION BETWEEN SS18-SSX FUSION ONCOPROTEIN AND NUCLEOSOMES” (Dana-Farber Cancer Institute, Inc., priority 2020, published 2025).

The test system of the series is BAF complex subunits and histone proteins. Put plainly: Mass spectrometry proteomics of purified HA-SS18 WT and HA-SS18-SSX1 complexes (Tables 5A-5E). Also noted: species or system human. The settings on record: HEK-293T; for Total (total peptides) / Unique (unique peptides): HA-SS18SSX1 purification, NE (soluble nuclear extract) fraction, peptides per identified protein.

The mark [1] stands for this setting: HA-SS18WT_NE_peptides: HA-SS18 WT complexes purified from nuclear extract (NE), label = protein identified (Gene Symbol).
The mark [2] stands for this setting: HA-SS18WT_NE_peptides: proteins co-purified with HA-SS18 WT from nuclear extract (NE).

B1: DDOST (protein, UniProt P39656 43-456, looked up)
Dolichyl-diphosphooligosacchar …: SGPRTLVLLDNLNVRETHSLFFRSLKDRGFELTFKTADDPSLSLIKYGEFLYDNLIIFSPSVEDFGGNINVETISAFIDGGGSVLVAASSDIGDPLRELGSECGIEFDEEKTAVIDHHNYDISDLGQHTLIVADTENLLKAPTIVGKSSLNPILFRGVGMVADPDNPLVLDILTGSSTSYSFFPDKPITQYPHAVGKNTLLIAGLQARNNARVIFSGSLDFFSDSFFNSAVQKAAPGSQRYSQTGNYELAVALSRWVFKEEGVLRVGPVSHHRVGETAPPNAYTVTDLVEYSIVIQQLSNGKWVPFDGDDIQLEFVRIDPFVRTFLKKKGGKYSVQFKLPDVYGVFQFKVDYNRLGYTHLYSSTQVSVRPLQHTQYERFIPSAYPYYASAFSMMLGLFIFSIVFLHMKEKEKSD
With B1, the “Total (total peptides)” value is 5 and the “Unique (unique peptides)” value was found to be 5. Also, under setting [1], the “Total (peptides)” value worked out at 8 and the “Unique (peptides)” value is 7.

B2: ALDH1L2 (protein)
chain: MLRRGSQALRRFSTGRVYFKNKLKLALIGQSLFGQEVYSHLRKEGHRVVGVFTVPDKDGKADPLALAAEKDGTPVFKLPKWRVKGKTIKEVAEAYRSVGAELNVLPFCTQFIPMDIIDSPKHGSIIYHPSILPRHRGASAINWTLIMGDKKAGFSVFWADDGLDTGPILLQRSCDVEPNDTVDALYNRFLFPEGIKAMVEAVQLIADGKAPRIPQPEEGATYEGIQKKENAEISWDQSAEVLHNWIRGHDKVPGAWTEINGQMVTFYGSTLLNSSVPPGEPLEIKGAKKPGLVTKNGLVLFGNDGKALTVRNLQFEDGKMIPASQYFSTGETSVVELTAEEVKVAETIKVIWAGILSNVPIIEDSTDFFKSGASSMDVARLVEEIRQKCGGLQLQNEDVYMATKFEGFIQKVVRKLRGEDQEVELVVDYISKEVNEIMVKMPYQCFINGQFTDADDGKTYDTINPTDGSTICKVSYASLADVDKAVAAAKDAFENGEWGRMNARERGRLMYRLADLLEENQEELATIEALDSGAVYTLALKTHIGMSVQTFRYFAGWCDKIQGSTIPINQARPNRNLTFTKKEPLGVCAIIIPWNYPLMMLAWKSAACLAAGNTLVLKPAQVTPLTALKFAELSVKAGFPKGVINIIPGSGGIAGQRLSEHPDIRKLGFTGSTPIGKQIMKSCAVSNLKKVSLELGGKSPLIIFNDCELDKAVRMGMGAVFFNKGENCIAAGRLFVEESIHDEFVTRVVEEIKKMKIGDPLDRSTDHGPQNHKAHLEKLLQYCETGVKEGATLVYGGRQVQRPGFFMEPTVFTDVEDYMYLAKEESFGPIMVISKFQNGDIDGVLQRANSTEYGLASGVFTRDINKAMYVSEKLEAGTVFINTYNKTDVAAPFGGVKQSGFGKDLGEEALNEYLKTKTVTLEY
Regarding B2, the “Total (total peptides)” value came to 5 and the “Unique (unique peptides)” value worked out at 5. Under setting [1], the “Total (peptides)” value worked out at 6 and the “Unique (peptides)” value is 6.

B3: ARMCX3 (protein, UniProt Q9UH62 1-379, looked up)
Armadillo repeat-containing …: MGYARKVGWVTAGLVIGAGACYCIYRLTRGRKQNKEKMAEGGSGDVDDAGDCSGARYNDWSDDDDDSNESKSIVWYPPWARIGTEAGTRARARARARATRARRAVQKRASPNSDDTVLSPQELQKVLCLVEMSEKPYILEAALIALGNNAAYAFNRDIIRDLGGLPIVAKILNTRDPIVKEKALIVLNNLSVNAENQRRLKVYMNQVCDDTITSRLNSSVQLAGLRLLTNMTVTNEYQHMLANSISDFFRLFSAGNEETKLQVLKLLLNLAENPAMTRELLRAQVPSSLGSLFNKKENKEVILKLLVIFENINDNFKWEENEPTQNQFGEGSLFFFLKEFQVCADKVLGIESHHDFLVKVKVGKFMAKLAEHMFPKSQE
For B3, the “Total (total peptides)” value was determined as 5 and the “Unique (unique peptides)” value amounted to 5. Under setting [2], the “Total (peptides)” value amounted to 1 and the “Unique (peptides)” value was 1.

B4: PDHB (protein, UniProt P11177 31-359, looked up)
Pyruvate dehydrogenase E1 …: LQVTVRDAINQGMDEELERDEKVFLLGEEVAQYDGAYKVSRGLWKKYGDKRIIDTPISEMGFAGIAVGAAMAGLRPICEFMTFNFSMQAIDQVINSAAKTYYMSGGLQPVPIVFRGPNGASAGVAAQHSQCFAAWYGHCPGLKVVSPWNSEDAKGLIKSAIRDNNPVVVLENELMYGVPFEFPPEAQSKDFLIPIGKAKIERQGTHITVVSHSRPVGHCLEAAAVLSKEGVECEVINMRTIRPMDMETIEASVMKTNHLVTVEGGWPQFGVGAEICARIMEGPAFNFLDAPAVRVTGADVPMPYAKILEDNSIPQVKDIIFAIKKTLNI
As for B4, the “Total (total peptides)” value amounted to 5 and the “Unique (unique peptides)” value turned out to be 4. For the same molecule, under setting [1], the “Total (peptides)” value was 10 and the “Unique (peptides)” value is 8.

B5: ATP5F1 (protein, UniProt P24539 43-256, looked up)
ATP synthase peripheral stalk …: PVPPLPEYGGKVRYGLIPEEFFQFLYPKTGVTGPYVLGTGLILYALSKEIYVISAETFTALSVLGVMVYGIKKYGPFVADFADKLNEQKLAQLEEAKQASIQHIQNAIDTEKSQQALVQKRHYLFDVQRNNIAMALEVTYRERLYRVYKEVKNRLDYHISVQNMMRRKEQEHMINWVEKHVVQSISTQQEKETIAKCIADLKLLAKKAQAQPVM
Take B5: the “Total (total peptides)” value came out at 5 and the “Unique (unique peptides)” value amounted to 4. Under setting [1], the “Total (peptides)” value is 4 and the “Unique (peptides)” value is 4.

B6: RBM15B (protein, UniProt Q8NDT2 1-890, looked up)
Putative RNA-binding protein …: MKRQSERDSSPSGRGSSSSAKRPREREREAEAGGRRAAHKASGGAKHPVPARARDKPRGSGSGGGGHRDGRGTGDANHRASSGRSSGSGAGGGGRGGKASGDPGASGMSPRASPLPPPPPPPGAEPACPGSSAAAPEYKTLLISSLSPALPAEHLEDRLFHQFKRFGEISLRLSHTPELGRVAYVNFRHPQDAREARQHALARQLLLYDRPLKVEPVYLRGGGGSSRRSSSSSAAASTPPPGPPAPADPLGYLPLHGGYQYKQRSLSPVAAPPLREPRARHAAAAFALDAAAAAAVGLSRERALDYYGLYDDRGRPYGYPAVCEEDLMPEDDQRATRNLFIGNLDHSVSEVELRRAFEKYGIIEEVVIKRPARGQGGAYAFLKFQNLDMAHRAKVAMSGRVIGRNPIKIGYGKANPTTRLWVGGLGPNTSLAALAREFDRFGSIRTIDHVKGDSFAYIQYESLDAAQAACAKMRGFPLGGPDRRLRVDFAKAEETRYPQQYQPSPLPVHYELLTDGYTRHRNLDADLVRDRTPPHLLYSDRDRTFLEGDWTSPSKSSDRRNSLEGYSRSVRSRSGERWGADGDRGLPKPWEERRKRRSLSSDRGRTTHSPYEERSRTKGSGQQSERGSDRTPERSRKENHSSEGTKESSSNSLSNSRHGAEERGHHHHHHEAADSSHGKKARDSERNHRTTEAEPKPLEEPKHETKKLKNLSEYAQTLQLGWNGLLVLKNSCFPTSMHILEGDQGVISSLLKDHTSGSKLTQLKIAQRLRLDQPKLDEVTRRIKQGSPNGYAVLLATQATPSGLGTEGMPTVEPGLQRRLLRNLVSYLKQKQAAGVISLPVGGSKGRDGTGMLYAFPPCDFSQQYLQSALRTLGKLEEEHMVIVIVRDTA
For B6, the “Total (total peptides)” value is recorded as 5 and the “Unique (unique peptides)” value was determined as 5. For the same molecule, under setting [1], the “Total (peptides)” value is reported as 6 and the “Unique (peptides)” value was 5.

B7: GCAT (protein, UniProt O75600 22-419, looked up)
2-amino-3-ketobutyrate …: SALAQLRGILEGELEGIRGAGTWKSERVITSRQGPHIRVDGVSGGILNFCANNYLGLSSHPEVIQAGLQALEEFGAGLSSVRFICGTQSIHKNLEAKIARFHQREDAILYPSCYDANAGLFEALLTPEDAVLSDELNHASIIDGIRLCKAHKYRYRHLDMADLEAKLQEAQKHRLRLVATDGAFSMDGDIAPLQEICCLASRYGALVFMDECHATGFLGPTGRGTDELLGVMDQVTIINSTLGKALGGASGGYTTGPGPLVSLLRQRARPYLFSNSLPPAVVGCASKALDLLMGSNTIVQSMAAKTQRFRSKMEAAGFTISGASHPICPVMLGDARLASRMADDMLKRGIFVIGFSYPVVPKGKARIRVQISAVHSEEDIDRCVEAFVEVGRLHGALP
On to B7, for which the “Total (total peptides)” value is given as 4 and the “Unique (unique peptides)” value is recorded as 4. Further, under setting [1], the “Total (peptides)” value stood at 3 and the “Unique (peptides)” value is on record as 3.

B8: ACOT9 (protein, UniProt Q9Y305 22-439, looked up)
Acyl-coenzyme A thioesterase …: LTQGPQNPKKQGIFHIHEVRDKLREIVGASTNWRDHVKAMEERKLLHSFLAKSQDGLPPRRMKDSYIEVLLPLGSEPELREKYLTVQNTVRFGRILEDLDSLGVLICYMHNKIHSAKMSPLSIVTALVDKIDMCKKSLSPEQDIKFSGHVSWVGKTSMEVKMQMFQLHGDEFCPVLDATFVMVARDSENKGPAFVNPLIPESPEEEELFRQGELNKGRRIAFSSTSLLKMAPSAEERTTIHEMFLSTLDPKTISFRSRVLPSNAVWMENSKLKSLEICHPQERNIFNRIFGGFLMRKAYELAWATACSFGGSRPFVVAVDDIMFQKPVEVGSLLFLSSQVCFTQNNYIQVRVHSEVASLQEKQHTTTNVFHFTFMSEKEVPLVFPKTYGESMLYLDGQRHFNSMSGPATLRKDYLVEP
For the molecule B8, the “Total (total peptides)” value amounted to 5 and the “Unique (unique peptides)” value was 5. Under setting [1], the “Total (peptides)” value came to 4 and the “Unique (peptides)” value came out at 4.

B9: NPEPPS (protein, UniProt P55786 1-919, looked up)
Puromycin-sensitive …: MWLAAAAPSLARRLLFLGPPPPPLLLLVFSRSSRRRLHSLGLAAMPEKRPFERLPADVSPINYSLCLKPDLLDFTFEGKLEAAAQVRQATNQIVMNCADIDIITASYAPEGDEEIHATGFNYQNEDEKVTLSFPSTLQTGTGTLKIDFVGELNDKMKGFYRSKYTTPSGEVRYAAVTQFEATDARRAFPCWDEPAIKATFDISLVVPKDRVALSNMNVIDRKPYPDDENLVEVKFARTPVMSTYLVAFVVGEYDFVETRSKDGVCVRVYTPVGKAEQGKFALEVAAKTLPFYKDYFNVPYPLPKIDLIAIADFAAGAMENWGLVTYRETALLIDPKNSCSSSRQWVALVVGHELAHQWFGNLVTMEWWTHLWLNEGFASWIEYLCVDHCFPEYDIWTQFVSADYTRAQELDALDNSHPIEVSVGHPSEVDEIFDAISYSKGASVIRMLHDYIGDKDFKKGMNMYLTKFQQKNAATEDLWESLENASGKPIAAVMNTWTKQMGFPLIYVEAEQVEDDRLLRLSQKKFCAGGSYVGEDCPQWMVPITISTSEDPNQAKLKILMDKPEMNVVLKNVKPDQWVKLNLGTVGFYRTQYSSAMLESLLPGIRDLSLPPVDRLGLQNDLFSLARAGIISTVEVLKVMEAFVNEPNYTVWSDLSCNLGILSTLLSHTDFYEEIQEFVKDVFSPIGERLGWDPKPGEGHLDALLRGLVLGKLGKAGHKATLEEARRRFKDHVEGKQILSADLRSPVYLTVLKHGDGTTLDIMLKLHKQADMQEEKNRIERVLGATLLPDLIQKVLTFALSEEVRPQDTVSVIGGVAGGSKHGRKAAWKFIKDNWEELYNRYQGGFLISRLIKLSVEGFAVDKMAGEVKAFFESHPAPSAERTIQQCCENILLNAAWLKRDAESIHQYLLQRKASPPTV
B9: the “Total (total peptides)” value is 5 and the “Unique (unique peptides)” value is 5. Under setting [1], the “Total (peptides)” value turned out to be 4 and the “Unique (peptides)” value is 4.
